# In PubChem BioAssay AID595 (National Center for Advancing Translational Sciences (NCATS), 2007):
# The campaign covered roughly 71,000 compounds. About 310 (0.44%) were called active. The shares of active, inactive and inconclusive entries below differ from those in the screen. Calls come from the whole dose curve; as a rule, active = well fitted curve in either direction with a large enough effect; inconclusive = small, poorly fitted or top-dose-only effect, or another doubt; inactive = flat fitted curve, though single readings scatter. Potencies beside an inconclusive call are fits to weak or partial responses and may not hold up.
# Tested on: Hsp90 C-terminal peptide / TPR2A (Hop) interaction, human
# Test: qHTS Assay for Disrupters of an Hsp90 Co-Chaperone Interaction
# Settings: AlphaScreen TPR2A-His6 binding biotin-Hsp90 C-terminal peptide; activity change, negative = inhibition: at 57 µM (top of the series) unless noted
# % is set by controls: 0 for no effect and ±100 for the full control effect; potency is the fitted concentration of half-maximal effect.
SMILES,Potency,"activity change, negative = inhibition"
CCOc1ccc(C(=O)CCNC(Cc2cnc[nH]2)C(=O)O)cc1 (stereo not drawn),"inconclusive: 3.16 µM [inhibitor, partial curve]",–
O=C1C(C=NCCCn2ccnc2)=C(O)c2ccccc21,active: 3.16 µM,–
COc1ccc(CCNC(=O)c2nnn(-c3ccc4c(c3)OCCO4)c2N)cc1OC,–,inconclusive: 44%
CCCC/C=C/C(NC(=O)CCc1ccccc1)c1ccccc1 (stereo not drawn),"inconclusive: 31.6 µM [activator, single point]",–
CCOC(=O)CC(C(=O)OCC)P(=O)(c1ccccc1)c1ccccc1 (stereo not drawn),–,inconclusive: 44.5%
CCC(C)C(=O)Nc1cc(C(=O)OC)cc(C(=O)OC)c1 (stereo not drawn),–,inconclusive: 45.5%
Cc1cccc(-c2nc(C#N)c(N3CCCCCC3)o2)c1,"inconclusive: 15.8 µM [inhibitor, partial curve]",–
CCOC(=O)N1CCN(c2c(NCCCN(CC)Cc3ccccc3)c(=O)c2=O)CC1,–,inactive
COc1cc(NC(=O)C2CCCN2S(=O)(=O)c2ccc3c(c2)CCC(=O)N3)cc(OC)c1 (stereo not drawn),–,inconclusive: 52.5%
N#Cc1c(-c2ccco2)c2c([nH]c1=S)CCCC2,–,inactive
CC(=O)Nc1ccc(S(=O)(=O)NCCC(=O)OCCN2C(=O)c3ccccc3C2=O)cc1,–,inconclusive: 50.1%
CCOc1ccc(NC(=O)C/C(N)=N/O)cc1,–,inconclusive: 46.2%
O=C1CC(N2CCN(C3CCc4ccccc4C3)CC2)C(=O)N1c1ccccc1 (stereo not drawn),–,inactive
CCOC(=O)C1CCCN(C(=O)CCCn2nc(C)n3c(cc4sccc43)c2=O)C1 (stereo not drawn),–,inconclusive: 41.3%
Cc1cc(NC(=O)CSc2nnc(-c3ccc(Cl)s3)o2)no1,"inconclusive: 31.6 µM [inhibitor, partial curve]",–
CCn1c(CCC(=O)Nc2nc3c(s2)CCCC3)nc2cc(S(=O)(=O)N(C)C)ccc21,–,inconclusive: 4.62%
Cc1cc(-c2ccc(N=Nc3ccc4c(S(=O)(=O)O)cc(S(=O)(=O)O)c(N)c4c3O)c(C)c2)ccc1N=Nc1ccc2c(S(=O)(=O)O)cc(S(=O)(=O)O)c(N)c2c1O,active: 3.98 µM,–
CCCNC[C@H](O)COc1ccccc1C(=O)CCc1ccccc1,–,inactive
CCN1CCN(Cc2ccc(NC(=O)Nc3ccccc3OC)cc2)CC1,–,inconclusive: 42.2% [at 2.3 µM]
CCc1cc(C)cc(OCCNC(=O)c2ncn[nH]2)c1,"inconclusive: 25.1 µM [inhibitor, partial curve]",–
COCCN(CCOC)S(=O)(=O)c1ccc(C(=O)Nc2nc(-c3ccncc3)cs2)cc1,–,inactive

# Some of these compounds in order of heavy-atom count, ascending:
SMILES,Potency,"activity change, negative = inhibition"
CCOC(=O)CC(C(=O)OCC)P(=O)(c1ccccc1)c1ccccc1 (stereo not drawn),–,inconclusive: 44.5%
O=C1CC(N2CCN(C3CCc4ccccc4C3)CC2)C(=O)N1c1ccccc1 (stereo not drawn),–,inactive
COc1ccc(CCNC(=O)c2nnn(-c3ccc4c(c3)OCCO4)c2N)cc1OC,–,inconclusive: 44%

# Following part:

SMILES,Potency,"activity change, negative = inhibition"
COc1ccccc1N1C(=O)C2C3C=CC(C3)C2C1=O (stereo not drawn),–,inconclusive: 71.9%
C(=N\c1c(-c2ccccc2)nc2n1CCS2)/c1ccccc1,"inconclusive: 25.1 µM [inhibitor, partial curve]",–
CCC(C)COC(=O)c1ccc(C(=O)O)cc1 (stereo not drawn),–,inconclusive: 61.8%
COc1ccccc1-c1nc(NCc2cnc(C)cn2)c2ccccc2n1,–,inconclusive: 80.9%
COc1ccc2[nH]cc(CCNc3ncnc4ccc(-c5ccccc5OC)cc34)c2c1,"inconclusive: 25.1 µM [inhibitor, single point]",–
Cc1cccc(-c2nnc(SCc3nc4ccccc4[nH]3)n2Cc2ccco2)c1,–,inactive
CCC(C)(C(=O)NC1CCCCC1)N(Cc1ccco1)C(=O)CC1NC(=O)NC1=O (stereo not drawn),–,inconclusive: 57%
CCOC(=O)NC(Nc1ncccn1)(C(F)(F)F)C(F)(F)F,–,inconclusive: 37.5%
CCOc1ccc(-c2nc(-c3ccccc3C)no2)cc1,–,inactive
O=C1NCCCC2c3cc(O)c4ccccc4c3OC12N1CCCCC1 (stereo not drawn),"inconclusive: 31.6 µM [inhibitor, partial curve]",–
COc1ccc(Nc2oc(COc3cccc(C)c3)nc2C#N)cc1,"inconclusive: 20 µM [inhibitor, partial curve]",–
COc1ccccc1Nc1nc(N)nc(CSc2ncccn2)n1,–,inconclusive: 43.6%
CCCCc1nc2n[nH]c(N)c2c2c1CCC2,–,inactive
Cc1ccc(SCCNC(=O)CN2C(=O)c3ccccc3S2(=O)=O)cc1,–,inactive
CC(=O)Oc1ccc2c(C)c(CC(C)O)c(=O)oc2c1 (stereo not drawn),–,inconclusive: 56.1%
COc1ccccc1CNc1ncncc1-c1ccc(N(C)C)cc1,"inconclusive: 25.1 µM [inhibitor, partial curve]",–
O=C(CSc1nc(-c2ccco2)cc(C(F)(F)F)n1)Nc1cccnc1,–,inactive
CN(C)c1ccc(NC(=S)c2ccccn2)cc1,"inconclusive: 12.6 µM [inhibitor, partial curve]",–
COC(=O)c1sc(NC(=O)c2cc3c(s2)CCCC3)nc1C,–,inconclusive: 44.8%
CCOC(=O)CCN(Cc1cccs1)S(=O)(=O)c1ccc(Cl)cc1,"inconclusive: 25.1 µM [activator, single point]",–
Cc1ccc(S(=O)(=O)c2c(C)nn(C(C)(C)C)c2OC(=O)c2ccc(Br)o2)cc1,–,inactive

SMILES,Potency,"activity change, negative = inhibition"
CCN1CCN(c2cc(=O)n(C3CCCCC3)c(=O)[nH]2)CC1,–,inconclusive: 43.2%
COc1ccccc1-c1ccc2ncnc(NCc3cccnc3)c2c1,–,inconclusive: 81%
CCOC(=O)c1ccc(NC(=O)CSc2nnc(-c3cccs3)n2C)cc1,–,inconclusive: 25.7%
CCOC(=O)c1c(NC(=O)OC)sc2c1CCC2,–,inactive
CCc1c2c(nc3ccc(OC)cc13)OC(CC)C2 (stereo not drawn),–,inconclusive: 70.7%
CC(=O)OCCN(Cc1ccccc1)Cc1ccc2c(c1)OCO2,"inconclusive: 25.1 µM [activator, single point]",–
Clc1ccc(N2CCN(c3ncnc4c3oc3ccccc34)CC2)cc1,–,inconclusive: 51.6%
O=C(COC(=O)C1=COCCO1)Nc1ccc2c(c1)OCO2,–,inactive
COc1ccc(OCC(=O)Nc2cc(OC)cc(OC)c2)cc1,–,inactive
O=C(O)c1ccc(NCc2cccnc2)cc1,–,inactive
Cn1c(C(=O)Nc2ccc3c(c2)OCCO3)cc2sccc21,–,inactive
CCOC(=O)CSc1nc2ccccc2c(=O)n1C1CCCC1,–,inactive
CO/N=C(\C(=O)N[C@@H]1C(=O)N2C(C(=O)[O-])=C(C[N+]3(C)CCCC3)CS[C@@H]12)c1csc(N)n1,–,inactive
CCOC(=O)Cc1c(C)c2ccc(N(CC)CC)cc2oc1=O,active: 25.1 µM [activator],–
C#CCOCCCC(=O)O,–,inactive: -5.35% [at 11 µM]
CCOC(=O)Cn1c2c(c(-c3ccccc3OC)cc1=O)CCCC2,"inconclusive: 39.8 µM [activator, single point]",–
COc1ccc(CCCc2nnc(SCC(=O)Nc3ncc(C)s3)o2)cc1,"inconclusive: 12.6 µM [activator, partial curve]",–
CCCCOc1ccccc1C1C(C(=O)OC)=CN(CC)C=C1C(=O)OC,–,inconclusive: 332% [at 11 µM]
COc1ccc(Nc2nc(N)nc(CN3CCOCC3)n2)cc1,"inconclusive: 31.6 µM [inhibitor, single point]",–
Cc1ccc(C)c(-n2c(SCC(N)=O)nnc2-c2ccccn2)c1,"inconclusive: 31.6 µM [inhibitor, partial curve]",–
O=C(NC(Cc1c[nH]c2ccccc12)c1nnc2n1CCCCC2)c1cccs1 (stereo not drawn),–,inconclusive: 35.7%

# 12 compounds out of the list, sorted by count of non-hydrogen atoms, ascending:
SMILES,Potency,"activity change, negative = inhibition"
C#CCOCCCC(=O)O,–,inactive: -5.35% [at 11 µM]
O=C(O)c1ccc(NCc2cccnc2)cc1,–,inactive
CCOC(=O)c1c(NC(=O)OC)sc2c1CCC2,–,inactive
CCc1c2c(nc3ccc(OC)cc13)OC(CC)C2 (stereo not drawn),–,inconclusive: 70.7%
O=C(COC(=O)C1=COCCO1)Nc1ccc2c(c1)OCO2,–,inactive
CCOC(=O)Cc1c(C)c2ccc(N(CC)CC)cc2oc1=O,active: 25.1 µM [activator],–
Cc1ccc(C)c(-n2c(SCC(N)=O)nnc2-c2ccccn2)c1,"inconclusive: 31.6 µM [inhibitor, partial curve]",–
CCOC(=O)Cn1c2c(c(-c3ccccc3OC)cc1=O)CCCC2,"inconclusive: 39.8 µM [activator, single point]",–
Clc1ccc(N2CCN(c3ncnc4c3oc3ccccc34)CC2)cc1,–,inconclusive: 51.6%
CCCCOc1ccccc1C1C(C(=O)OC)=CN(CC)C=C1C(=O)OC,–,inconclusive: 332% [at 11 µM]
Cc1ccc(S(=O)(=O)c2c(C)nn(C(C)(C)C)c2OC(=O)c2ccc(Br)o2)cc1,–,inactive
CO/N=C(\C(=O)N[C@@H]1C(=O)N2C(C(=O)[O-])=C(C[N+]3(C)CCCC3)CS[C@@H]12)c1csc(N)n1,–,inactive

# Continuation.

SMILES,Potency,"activity change, negative = inhibition"
CCN=c1scc(-c2ccc3c(c2)NC(=O)CO3)n1N=C1CCCC1,"inconclusive: 15.8 µM [inhibitor, partial curve]",–
CC(=O)N1CCC2(CC1)CCN(C(=O)Nc1cccc(F)c1)CC2,–,inactive
O=C(Nc1cccc(F)c1)N1CCCC2(CCN(C(=O)c3cccc(F)c3)CC2)C1,–,inactive
CC1CCN(c2nncc3ccccc23)CC1,–,inactive
COc1ccc(N2C(=O)CC(Sc3nnc(-c4ccccc4)o3)C2=O)cc1 (stereo not drawn),–,inactive: -6.74% [at 11 µM]
CC(C)=CCNc1ncnc2c1c(C#N)cn2[C@H]1O[C@@H](CO)[C@@H](O)[C@@H]1O,–,inactive: -1.74% [at 11 µM]
CC(C)NCC(O)Cn1c2c(c3ccccc31)CCc1c-2cnn1-c1ccccc1 (stereo not drawn),–,inactive
CCCc1cc(C(N)=O)c(NC(=O)c2ccoc2C)s1,–,inconclusive: 26%
CCc1c(C)nc2cc(-c3cc(OC)cc(OC)c3)nn2c1N1CCCC1,"inconclusive: 25.1 µM [activator, partial curve]",–
COCCNC(=O)CN1C(=O)CC(C)(C)S(=O)(=O)c2ccccc21,–,inconclusive: 45%
COc1ccccc1NC(=O)C(C)NS(=O)(=O)c1ccc(Cl)cc1 (stereo not drawn),–,inconclusive: 41.5%
O=C(CCc1nc(-c2ccccc2F)no1)Nc1ccc(Oc2ccccc2)cc1,"inconclusive: 39.8 µM [activator, single point]",–
C=CCN1CCc2c(cc(O)c(O)c2Cl)[C@H](c2ccccc2)C1,"inconclusive: 12.6 µM [inhibitor, partial curve]",–
COC(=O)c1c(NC(=O)c2ccc(C)o2)sc2c1CCCCC2,"inconclusive: 25.1 µM [activator, partial curve]",–
CC(C)(C)c1ccc(OCc2nc(-c3ccccn3)no2)c(Br)c1,–,inconclusive: 70.9%
CCOc1cc(C(=O)CSc2nnc(CNc3ccc(Cl)cc3)o2)ccc1NC(=O)CC,–,inconclusive: 65.6%
Cc1cccc(S(=O)(=O)C(C#N)c2nc3ccccc3nc2N2CCOCC2)c1 (stereo not drawn),–,inactive
COc1ccc2nc3c(cc2c1)Cc1ccccc1-3,–,inconclusive: 89.4%
CCOC(=O)C(CCOc1cccc(CC)c1)C(=O)OCC,active: 25.1 µM [activator],–
COCCN1CCn2c(nc3cc(NC(=O)NC4CCCCC4)ccc32)C1,–,inconclusive: -1.69%
